From the NIST ThermoML archive (doi:10.1021/je9002515)
Numbers after ± are expanded uncertainties.

Tests used:
[1] = relative permittivity at zero frequency (dimensionless); xn = mol fraction of the nth substance listed; conditions: 101 kPa, Liquid, Parallel plate capacitor, x2 = 0
[2] = relative permittivity at zero frequency (dimensionless); conditions: 101 kPa, Liquid, Parallel plate capacitor

relative permittivity at zero frequency ([1]; 303.15 K) | relative permittivity at zero frequency ([1]; 313.15 K) | relative permittivity at zero frequency ([1]; 323.15 K) | relative permittivity at zero frequency ([1]; 333.15 K) | relative permittivity at zero frequency ([1]; 343.15 K) | relative permittivity at zero frequency ([1]; 353.15 K) | relative permittivity at zero frequency ([1]; 363.15 K) | relative permittivity at zero frequency ([1]; 373.15 K) | relative permittivity at zero frequency ([1]; 383.15 K) | relative permittivity at zero frequency ([1]; 393.15 K) | relative permittivity at zero frequency ([2]; 303.15 K) | relative permittivity at zero frequency ([2]; 313.15 K) | relative permittivity at zero frequency ([2]; 323.15 K) | relative permittivity at zero frequency ([2]; 333.15 K) | relative permittivity at zero frequency ([2]; 343.15 K) | relative permittivity at zero frequency ([2]; 353.15 K) | relative permittivity at zero frequency ([2]; 363.15 K) | relative permittivity at zero frequency ([2]; 373.15 K) | relative permittivity at zero frequency ([2]; 383.15 K) | relative permittivity at zero frequency ([2]; 393.15 K) | SMILES
38.67 ± 0.39 | 36.551 ± 0.37 | 34.678 ± 0.35 | 32.949 ± 0.33 | 31.458 ± 0.32 | 29.954 ± 0.3 | 28.578 ± 0.29 | 27.287 ± 0.27 | 26.074 ± 0.26 | 24.923 ± 0.25 | – | – | – | – | – | – | – | – | – | – | CC(=O)N(C)C [N,N-dimethylethanamide] + CNC(C)=O
– | – | – | – | – | – | – | – | – | – | 38.67 ± 0.39 | 36.551 ± 0.37 | 34.678 ± 0.35 | 32.949 ± 0.33 | 31.458 ± 0.32 | 29.954 ± 0.3 | 28.578 ± 0.29 | 27.287 ± 0.27 | 26.074 ± 0.26 | 24.923 ± 0.25 | CC(=O)N(C)C [N,N-dimethylethanamide]
